This is an account of results in PMC4568394, “Differentially expressed seed aging responsive heat shock protein OsHSP18.2 implicates in seed vigor, longevity and improves germination and seedling establishment under abiotic stress” (Frontiers in Plant Science, 2015).

This test has as its target OsHSP18.2, a class II cytosolic small heat shock protein of rice (6X His tagged recombinant) (Oryza sativa indica var. PB-1) (UniProt Q5VRY1). Nature of the test: native gel or EMSA; 5% native polyacrylamide gel of the purified protein, with marker bands; both purified.

No constants are given. Whether binding was seen depends on the method and setting. Some binding calls cover weakened binding; strength is not graded here. Tags and fused reporters may be left off the sequences shown.

B1: OsHSP18.2, a class II cytosolic small heat shock protein of rice (6X His tagged recombinant) (natural protein, Oryza sativa indica var. PB-1, UniProt Q5VRY1 1-166, looked up)
chain: MESAMFGLETPLMTALQHLLDIPDGEGGAAGKQGATGGPTRAYVRDARAMAATPADVKDLPGAYAFVVDMPGLKSSDIKVQVEEERLLVISGERRRGGGEEEKEESCKYLRMERRMGKFMRKFVLPDNADVDKISAVCQDGVLTVTVEKLPPPEPKKPKTIEVKVA
notes: OsHSP18.2, class II heat shock protein, Oryza sativa indica var; complete ORF / CDS, 166 aa, predicted 18.2 kDa; the indica PB-1 clone may differ from it; pET23b usually adds a C-terminal His6 tag; copies: 12
For the molecule B1, the binding result is “binds”.
